Assay results taken from publication PMC12402158.
No constants are given. Whether binding was seen depends on the method and setting. Binding seen in cells or lysates may run through a third protein.

Target: T1, USP43 as used in the immunoprecipitation with SLC7A11 (Fig. S3B) (human), Q70EL4
T1 chain: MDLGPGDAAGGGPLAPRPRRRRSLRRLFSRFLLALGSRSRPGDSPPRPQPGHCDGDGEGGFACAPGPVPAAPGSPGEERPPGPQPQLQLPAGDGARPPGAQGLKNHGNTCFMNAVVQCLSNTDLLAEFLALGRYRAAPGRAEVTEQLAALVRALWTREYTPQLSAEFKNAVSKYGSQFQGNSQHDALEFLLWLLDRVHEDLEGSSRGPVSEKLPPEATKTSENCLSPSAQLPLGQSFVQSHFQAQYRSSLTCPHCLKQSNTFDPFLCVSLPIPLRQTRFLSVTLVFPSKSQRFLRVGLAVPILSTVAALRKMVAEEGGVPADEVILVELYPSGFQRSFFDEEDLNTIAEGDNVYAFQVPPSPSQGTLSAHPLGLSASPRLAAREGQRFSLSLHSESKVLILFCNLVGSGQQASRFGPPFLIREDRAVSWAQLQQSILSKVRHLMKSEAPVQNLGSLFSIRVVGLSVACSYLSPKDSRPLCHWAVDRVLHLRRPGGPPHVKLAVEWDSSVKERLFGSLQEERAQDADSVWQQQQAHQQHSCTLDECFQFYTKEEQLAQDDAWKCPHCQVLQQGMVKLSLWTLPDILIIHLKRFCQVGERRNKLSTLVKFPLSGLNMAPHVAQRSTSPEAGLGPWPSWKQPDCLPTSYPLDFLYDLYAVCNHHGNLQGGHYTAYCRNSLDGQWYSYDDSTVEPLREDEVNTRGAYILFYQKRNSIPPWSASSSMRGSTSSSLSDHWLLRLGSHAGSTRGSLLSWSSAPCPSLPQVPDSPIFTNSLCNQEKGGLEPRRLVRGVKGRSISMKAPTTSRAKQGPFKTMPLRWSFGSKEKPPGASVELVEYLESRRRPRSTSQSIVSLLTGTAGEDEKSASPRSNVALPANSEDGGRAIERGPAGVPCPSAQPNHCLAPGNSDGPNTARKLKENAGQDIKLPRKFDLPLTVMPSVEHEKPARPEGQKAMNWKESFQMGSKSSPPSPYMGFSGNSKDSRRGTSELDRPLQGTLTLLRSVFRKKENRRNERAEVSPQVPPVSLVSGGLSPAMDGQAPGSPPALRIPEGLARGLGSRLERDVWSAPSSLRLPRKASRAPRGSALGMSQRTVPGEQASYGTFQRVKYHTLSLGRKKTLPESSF
Experiment: co-IP; immunoprecipitation to test USP43 with SLC7A11 (Fig. S3B); cells and antibodies not given
Conditions: remark: other sources report otherwise

binding: no binding
B1: SLC7A11 (solute carrier family 7 member 11), Q9UPY5 1-501 (protein)
chain: MVRKPVVSTISKGGYLQGNVNGRLPSLGNKEPPGQEKVQLKRKVTLLRGVSIIIGTIIGAGIFISPKGVLQNTGSVGMSLTIWTVCGVLSLFGALSYAELGTTIKKSGGHYTYILEVFGPLPAFVRVWVELLIIRPAATAVISLAFGRYILEPFFIQCEIPELAIKLITAVGITVVMVLNSMSVSWSARIQIFLTFCKLTAILIIIVPGVMQLIKGQTQNFKDAFSGRDSSITRLPLAFYYGMYAYAGWFYLNFVTEEVENPEKTIPLAICISMAIVTIGYVLTNVAYFTTINAEELLLSNAVAVTFSERLLGNFSLAVPIFVALSCFGSMNGGVFAVSRLFYVASREGHLPEILSMIHVRKHTPLPAVIVLHPLTMIMLFSGDLDSLLNFLSFARWLFIGLAVAGLIYLRYKCPDMHRPFKVPLFIPALFSFTCLFMVALSLYSDPFSTGIGFVITLTGVPAYYLFIIWDKKPRWFRIMSEKITRTLQIILEVVPEEDKL
